These are yes or no findings as the source states them, for the method shown. Binding seen in cells or lysates may run through a third protein. Some entries that bind do so weakly or less than the wild type.
Target: T1, nuclear factor erythroid 2-related factor 2 (NRF2) (human (endogenous in H1299)) (UniProt Q16236)
T1 sequence: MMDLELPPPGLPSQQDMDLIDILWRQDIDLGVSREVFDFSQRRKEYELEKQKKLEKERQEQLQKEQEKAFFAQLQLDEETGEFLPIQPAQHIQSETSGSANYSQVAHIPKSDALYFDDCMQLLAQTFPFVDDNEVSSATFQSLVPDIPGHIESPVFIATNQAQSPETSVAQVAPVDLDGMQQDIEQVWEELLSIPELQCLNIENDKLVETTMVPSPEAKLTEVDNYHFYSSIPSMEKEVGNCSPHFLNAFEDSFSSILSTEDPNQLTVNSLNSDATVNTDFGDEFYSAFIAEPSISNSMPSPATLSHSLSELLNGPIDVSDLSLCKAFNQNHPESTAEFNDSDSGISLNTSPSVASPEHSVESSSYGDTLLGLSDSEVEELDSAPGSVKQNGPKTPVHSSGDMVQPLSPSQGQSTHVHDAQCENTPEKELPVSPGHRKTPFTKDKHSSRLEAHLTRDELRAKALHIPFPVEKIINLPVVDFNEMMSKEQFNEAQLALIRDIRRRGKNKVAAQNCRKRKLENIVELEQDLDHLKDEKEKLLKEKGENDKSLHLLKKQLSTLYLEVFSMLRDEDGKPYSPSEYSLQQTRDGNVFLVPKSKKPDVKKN
Assay: co-IP; immunoprecipitation of endogenous NRF2 (anti-NRF2 antibody, protein G-Sepharose) from lysates of H1299 cells transiently transfected with p53R175H or p53 peptide aptamer vectors; Co-IP buffer 150 mM NaCl, 50 mM Tris-HCl pH 8, 1 mM EDTA, 0.5% NP40, 10% glycerol; overnight at 4°C; western blot

binding: binds
Substance: peptide1 (pep1), p53 peptide aptamer corresponding to aa 98-128 of the p53 DNA-binding domain (from UniProt P04637 98-128)
